The supplement of paper PMC12823440, “Inhibitors supercharge kinase turnover through native proteolytic circuits” (Nature, 2025)
The list shows a part of the results. Hit calls seldom repeat between salt and free forms of one compound.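 In K562 cells expressing nanoluciferase-fused kinases, luminescence was recorded at 4 h intervals between 2 and 18 h, normalized as percent of control with DMSO at 100% and a positive control at 0%. A significant (2 sigma) signal drop marks a time point as decreased. The authors' rule for a hit is not shown and takes in more than the number of time points.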

Amino acid sequences for entries named in this document (tags omitted). A change or cut given only in a name is not applied to a line headed by its entry.
UniProt Q14289, whole entry, looked up: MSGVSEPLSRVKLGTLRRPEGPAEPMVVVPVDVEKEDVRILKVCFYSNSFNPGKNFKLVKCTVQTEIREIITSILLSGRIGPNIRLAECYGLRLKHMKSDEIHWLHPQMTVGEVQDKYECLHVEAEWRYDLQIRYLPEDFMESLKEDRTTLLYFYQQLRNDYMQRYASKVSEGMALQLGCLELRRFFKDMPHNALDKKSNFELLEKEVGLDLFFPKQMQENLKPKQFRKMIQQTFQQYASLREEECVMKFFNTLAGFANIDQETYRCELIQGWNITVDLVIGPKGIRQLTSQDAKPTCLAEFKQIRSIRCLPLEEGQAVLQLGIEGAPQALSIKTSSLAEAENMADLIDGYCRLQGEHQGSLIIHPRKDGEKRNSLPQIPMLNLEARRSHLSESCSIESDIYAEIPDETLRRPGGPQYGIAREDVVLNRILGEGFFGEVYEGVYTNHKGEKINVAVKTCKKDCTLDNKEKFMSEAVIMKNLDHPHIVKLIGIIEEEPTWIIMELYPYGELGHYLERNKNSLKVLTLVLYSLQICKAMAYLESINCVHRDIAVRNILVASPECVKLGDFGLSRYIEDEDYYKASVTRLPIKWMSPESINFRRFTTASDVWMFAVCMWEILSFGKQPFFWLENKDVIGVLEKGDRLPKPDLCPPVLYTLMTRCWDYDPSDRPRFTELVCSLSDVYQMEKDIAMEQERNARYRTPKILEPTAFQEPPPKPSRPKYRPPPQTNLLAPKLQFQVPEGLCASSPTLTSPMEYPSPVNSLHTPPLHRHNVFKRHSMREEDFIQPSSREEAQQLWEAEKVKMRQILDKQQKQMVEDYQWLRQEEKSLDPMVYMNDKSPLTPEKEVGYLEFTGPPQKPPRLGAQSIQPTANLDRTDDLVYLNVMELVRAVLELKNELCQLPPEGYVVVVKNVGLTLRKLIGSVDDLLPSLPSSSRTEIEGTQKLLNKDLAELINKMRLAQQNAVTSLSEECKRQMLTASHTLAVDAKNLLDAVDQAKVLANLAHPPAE
UniProt Q9BRS2: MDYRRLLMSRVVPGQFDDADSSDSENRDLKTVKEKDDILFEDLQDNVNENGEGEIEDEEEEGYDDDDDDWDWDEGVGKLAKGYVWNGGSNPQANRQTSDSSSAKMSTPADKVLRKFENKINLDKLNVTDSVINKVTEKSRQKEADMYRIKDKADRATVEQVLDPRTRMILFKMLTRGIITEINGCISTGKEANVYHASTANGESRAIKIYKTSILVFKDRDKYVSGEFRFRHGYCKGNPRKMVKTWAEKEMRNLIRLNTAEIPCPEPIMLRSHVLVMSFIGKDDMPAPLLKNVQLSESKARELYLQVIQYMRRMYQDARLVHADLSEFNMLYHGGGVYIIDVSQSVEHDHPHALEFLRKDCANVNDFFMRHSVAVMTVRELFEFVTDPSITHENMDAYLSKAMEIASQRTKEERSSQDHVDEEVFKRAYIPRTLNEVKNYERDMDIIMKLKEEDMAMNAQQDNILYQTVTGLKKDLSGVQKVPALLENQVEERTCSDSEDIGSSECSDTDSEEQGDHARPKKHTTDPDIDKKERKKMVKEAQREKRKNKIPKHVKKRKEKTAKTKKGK
UniProt Q13546: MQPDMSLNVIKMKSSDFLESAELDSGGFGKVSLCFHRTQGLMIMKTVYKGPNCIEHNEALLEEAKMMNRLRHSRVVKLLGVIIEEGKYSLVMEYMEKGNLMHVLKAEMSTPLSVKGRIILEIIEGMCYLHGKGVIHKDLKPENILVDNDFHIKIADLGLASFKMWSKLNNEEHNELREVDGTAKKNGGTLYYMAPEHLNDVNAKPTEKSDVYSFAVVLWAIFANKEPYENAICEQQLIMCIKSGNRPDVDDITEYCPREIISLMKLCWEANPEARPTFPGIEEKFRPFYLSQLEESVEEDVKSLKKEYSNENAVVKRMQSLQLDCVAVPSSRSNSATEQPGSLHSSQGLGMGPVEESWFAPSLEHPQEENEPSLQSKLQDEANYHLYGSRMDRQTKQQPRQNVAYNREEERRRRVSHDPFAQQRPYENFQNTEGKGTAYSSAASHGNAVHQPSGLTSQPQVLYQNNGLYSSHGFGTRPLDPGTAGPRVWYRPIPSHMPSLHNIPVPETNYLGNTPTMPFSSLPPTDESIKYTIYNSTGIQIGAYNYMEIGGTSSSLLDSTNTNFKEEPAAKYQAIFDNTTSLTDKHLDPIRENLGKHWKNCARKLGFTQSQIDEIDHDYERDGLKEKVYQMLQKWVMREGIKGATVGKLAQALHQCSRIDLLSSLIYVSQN
UniProt Q01974, whole entry: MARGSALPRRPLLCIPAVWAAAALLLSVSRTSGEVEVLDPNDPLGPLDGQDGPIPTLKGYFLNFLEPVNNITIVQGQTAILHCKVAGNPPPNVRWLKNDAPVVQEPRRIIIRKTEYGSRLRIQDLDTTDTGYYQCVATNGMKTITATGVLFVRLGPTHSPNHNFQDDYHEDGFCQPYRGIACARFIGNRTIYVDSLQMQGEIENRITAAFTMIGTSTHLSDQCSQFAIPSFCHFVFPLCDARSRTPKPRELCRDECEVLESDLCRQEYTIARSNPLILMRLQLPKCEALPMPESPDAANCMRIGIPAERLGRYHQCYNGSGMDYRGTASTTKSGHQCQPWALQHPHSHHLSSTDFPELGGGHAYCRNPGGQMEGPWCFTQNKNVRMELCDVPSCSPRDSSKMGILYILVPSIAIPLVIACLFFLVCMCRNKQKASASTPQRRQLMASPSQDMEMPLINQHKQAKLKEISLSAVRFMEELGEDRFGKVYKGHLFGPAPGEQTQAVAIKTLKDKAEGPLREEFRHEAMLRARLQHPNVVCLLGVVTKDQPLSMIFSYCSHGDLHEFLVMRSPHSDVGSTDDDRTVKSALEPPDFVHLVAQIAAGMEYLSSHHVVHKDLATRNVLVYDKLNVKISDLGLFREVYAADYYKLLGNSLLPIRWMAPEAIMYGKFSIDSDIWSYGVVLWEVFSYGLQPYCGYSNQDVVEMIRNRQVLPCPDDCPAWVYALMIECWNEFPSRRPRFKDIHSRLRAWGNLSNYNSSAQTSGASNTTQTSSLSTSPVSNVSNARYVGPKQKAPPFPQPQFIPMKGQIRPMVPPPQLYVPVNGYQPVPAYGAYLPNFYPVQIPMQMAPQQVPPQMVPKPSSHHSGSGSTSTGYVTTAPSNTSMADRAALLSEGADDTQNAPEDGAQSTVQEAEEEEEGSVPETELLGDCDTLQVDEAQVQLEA
UniProt Q9NYA1, whole entry: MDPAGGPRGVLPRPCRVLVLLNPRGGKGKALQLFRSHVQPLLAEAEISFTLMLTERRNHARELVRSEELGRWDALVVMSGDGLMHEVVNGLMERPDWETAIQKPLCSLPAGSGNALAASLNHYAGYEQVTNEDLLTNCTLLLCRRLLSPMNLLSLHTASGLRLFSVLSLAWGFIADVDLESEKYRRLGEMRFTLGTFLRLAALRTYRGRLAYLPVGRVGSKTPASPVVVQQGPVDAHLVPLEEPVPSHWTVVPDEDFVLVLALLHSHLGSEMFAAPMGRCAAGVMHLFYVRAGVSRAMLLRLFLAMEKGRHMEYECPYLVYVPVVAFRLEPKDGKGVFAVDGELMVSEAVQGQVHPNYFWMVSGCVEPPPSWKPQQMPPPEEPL
UniProt Q15208: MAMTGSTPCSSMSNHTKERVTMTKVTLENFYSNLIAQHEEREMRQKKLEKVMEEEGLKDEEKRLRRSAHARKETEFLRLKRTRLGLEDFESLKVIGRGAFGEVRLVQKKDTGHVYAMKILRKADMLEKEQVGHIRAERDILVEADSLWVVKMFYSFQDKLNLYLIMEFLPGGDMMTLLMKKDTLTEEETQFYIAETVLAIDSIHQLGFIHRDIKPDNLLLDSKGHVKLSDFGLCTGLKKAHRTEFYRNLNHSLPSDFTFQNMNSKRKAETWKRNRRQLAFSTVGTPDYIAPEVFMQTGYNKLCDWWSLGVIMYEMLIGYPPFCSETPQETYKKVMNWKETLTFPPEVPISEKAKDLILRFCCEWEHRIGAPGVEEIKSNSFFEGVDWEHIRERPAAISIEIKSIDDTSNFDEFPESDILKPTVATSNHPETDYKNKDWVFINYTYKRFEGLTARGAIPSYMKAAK
UniProt P42680: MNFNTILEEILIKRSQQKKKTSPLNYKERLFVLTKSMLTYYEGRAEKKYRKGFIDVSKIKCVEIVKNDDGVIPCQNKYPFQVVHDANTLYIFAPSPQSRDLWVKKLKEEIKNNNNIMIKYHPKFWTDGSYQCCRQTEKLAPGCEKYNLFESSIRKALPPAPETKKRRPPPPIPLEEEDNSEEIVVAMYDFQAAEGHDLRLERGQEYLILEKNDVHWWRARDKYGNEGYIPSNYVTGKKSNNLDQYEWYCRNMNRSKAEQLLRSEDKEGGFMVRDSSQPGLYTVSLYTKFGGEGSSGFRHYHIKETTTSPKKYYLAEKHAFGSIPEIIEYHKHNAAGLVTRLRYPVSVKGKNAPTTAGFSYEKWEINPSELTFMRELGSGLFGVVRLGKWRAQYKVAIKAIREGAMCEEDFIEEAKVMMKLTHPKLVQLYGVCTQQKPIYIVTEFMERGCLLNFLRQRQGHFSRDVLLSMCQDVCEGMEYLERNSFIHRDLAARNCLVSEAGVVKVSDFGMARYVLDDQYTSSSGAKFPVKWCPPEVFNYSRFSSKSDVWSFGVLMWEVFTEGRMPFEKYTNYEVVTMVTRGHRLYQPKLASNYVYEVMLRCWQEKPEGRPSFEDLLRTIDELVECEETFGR
UniProt P29597: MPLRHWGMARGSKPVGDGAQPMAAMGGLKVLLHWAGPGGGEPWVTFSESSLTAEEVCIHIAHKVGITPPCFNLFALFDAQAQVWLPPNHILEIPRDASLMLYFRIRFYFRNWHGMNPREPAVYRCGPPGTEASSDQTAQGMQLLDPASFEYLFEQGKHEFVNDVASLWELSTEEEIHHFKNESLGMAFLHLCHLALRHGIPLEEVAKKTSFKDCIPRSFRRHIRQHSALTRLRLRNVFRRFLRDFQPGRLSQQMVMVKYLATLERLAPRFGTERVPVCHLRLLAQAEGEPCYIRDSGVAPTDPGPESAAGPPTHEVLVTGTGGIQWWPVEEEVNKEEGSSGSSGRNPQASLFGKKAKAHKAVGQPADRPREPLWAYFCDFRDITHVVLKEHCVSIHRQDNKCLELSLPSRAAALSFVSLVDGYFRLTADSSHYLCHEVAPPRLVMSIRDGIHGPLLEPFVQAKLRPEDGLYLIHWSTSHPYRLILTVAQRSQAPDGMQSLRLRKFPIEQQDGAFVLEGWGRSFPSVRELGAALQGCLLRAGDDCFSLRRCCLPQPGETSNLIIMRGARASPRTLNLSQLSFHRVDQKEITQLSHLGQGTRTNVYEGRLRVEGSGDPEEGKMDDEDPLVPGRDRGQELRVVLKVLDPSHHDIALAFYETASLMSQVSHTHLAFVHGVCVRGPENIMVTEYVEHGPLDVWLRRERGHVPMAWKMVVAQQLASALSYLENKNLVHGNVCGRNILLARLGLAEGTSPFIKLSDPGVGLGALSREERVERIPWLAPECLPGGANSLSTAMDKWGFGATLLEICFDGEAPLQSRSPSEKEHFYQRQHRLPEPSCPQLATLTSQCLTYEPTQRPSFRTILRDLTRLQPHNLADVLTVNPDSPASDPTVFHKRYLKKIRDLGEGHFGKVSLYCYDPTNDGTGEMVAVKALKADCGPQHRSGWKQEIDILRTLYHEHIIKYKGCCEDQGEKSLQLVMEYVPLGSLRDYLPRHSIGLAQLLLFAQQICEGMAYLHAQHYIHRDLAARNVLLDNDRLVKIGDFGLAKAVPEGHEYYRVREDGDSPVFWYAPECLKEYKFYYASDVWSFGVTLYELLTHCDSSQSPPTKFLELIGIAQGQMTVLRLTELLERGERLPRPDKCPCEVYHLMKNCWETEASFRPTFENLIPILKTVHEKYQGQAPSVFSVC

Columns and labels:
Test in all cases: number of time points (of 5) at which kinase-Nluc abundance scored as decreased, DMSO-normalised (count); higher = more persistent destabilization
Settings in all cases: K562; 2-18 h
[1] = molecular target: PRKCA (UniProt P17252)
[2] = molecular target: PTK2 (UniProt Q05397)
[3] = molecular target: PTK2B (UniProt Q14289)
[4] = molecular target: RAF1 (UniProt P04049)
[5] = molecular target: RAF1_S257L (clone: RAF1_mut) (UniProt P04049)
[6] = molecular target: RET (UniProt P07949)
[7] = molecular target: RET_M918T (clone: RET_mut) (UniProt P07949)
[8] = molecular target: RIOK1 (UniProt Q9BRS2)
[9] = molecular target: RIPK1 (UniProt Q13546)
[10] = molecular target: RIPK2 (UniProt O43353)
[11] = molecular target: ROR2 (UniProt Q01974)
[12] = molecular target: RPS6KA1 (UniProt Q15418)
[13] = molecular target: SPHK1 (UniProt Q9NYA1)
[14] = molecular target: SRC (UniProt P12931)
[15] = molecular target: STK24 (UniProt Q9Y6E0)
[16] = molecular target: STK38 (UniProt Q15208)
[17] = molecular target: SYK (UniProt P43405)
[18] = molecular target: TEC (UniProt P42680)
[19] = molecular target: TYK2 (UniProt P29597)
[20] = molecular target: ULK3 (UniProt Q6PHR2)

SMILES | number of time points [1] | number of time points [2] | number of time points [3] | number of time points [4] | number of time points [5] | number of time points [6] | number of time points [7] | number of time points [8] | number of time points [9] | number of time points [10] | number of time points [11] | number of time points [12] | number of time points [13] | number of time points [14] | number of time points [15] | number of time points [16] | number of time points [17] | number of time points [18] | number of time points [19] | number of time points [20]
CN1CCN(c2ccc(Nc3cc(-c4cccc(-n5ccc6cc(C7CC7)cc(F)c6c5=O)c4CO)cn(C)c3=O)nc2)CC1 (2.5 µM) | 0 | 0 | 0 | 0 | 0 | 0 | 0 | 0 | 0 | 0 | 0 | 0 | 2 | 0 | 0 | 0 | 0 | 0 | 0 | 0
COc1cc(N2CCC(N)CC2)ccc1Nc1ncc(Cl)c(-c2c[nH]c3ccccc23)n1 (2.5 µM) | 0 | 0 | 0 | 0 | 0 | 0 | 0 | 0 | 0 | 0 | 0 | 0 | 0 | 0 | 0 | 0 | 0 | 0 | 0 | 0
COc1cc(C(=O)NC2CCN(C)CC2)ccc1Nc1ncc2c(n1)N(C1CCCC1)CC(F)(F)C(=O)N2C (10 µM) | 0 | 0 | 0 | 0 | 0 | 0 | 0 | 0 | 0 | 0 | 0 | 0 | 1 | 0 | 0 | 0 | 0 | 0 | 1 | 0
C=CC(=O)N1CCC[C@@H](n2nc(-c3ccc(Oc4ccccc4)cc3)c(C(N)=O)c2N)C1 [Btk inhibitor 2] (10 µM) | 0 | 0 | 0 | 0 | 0 | 0 | 0 | 0 | 0 | 0 | 0 | 0 | 0 | 0 | 0 | 0 | 0 | 0 | 0 | 0
Cc1cc(F)c(C(=O)Nc2cccc(-c3nncn3C(C)C)n2)cc1-n1cnc(C2CC2)c1 [Selonsertib] (10 µM) | 0 | 0 | 0 | 0 | 0 | 0 | 0 | 0 | 0 | 0 | 0 | 0 | 0 | 0 | 0 | 0 | 0 | 0 | 0 | 0
COc1cc(C=C(C#N)C(N)=O)cc(CSc2nc3ccccc3s2)c1O (10 µM) | 0 | 0 | 0 | 0 | 0 | 0 | 0 | 0 | 0 | 0 | 0 | 0 | 0 | 0 | 0 | 0 | 0 | 0 | 0 | 0
C/C=C(/C)C(=O)O[C@H]1Cc2cc3ccc(=O)oc3cc2OC1(C)C [Decursinol angelate] (10 µM) | 0 | 0 | 0 | 0 | 0 | 0 | 0 | 0 | 0 | 0 | 0 | 0 | 0 | 0 | 0 | 0 | 0 | 0 | 0 | 0
O=c1c(O)c(-c2ccc(O)c(O)c2)oc2cc(O)cc(O)c12 [Quercetin (dihydrate)] (10 µM) | 0 | 0 | 0 | 0 | 0 | 0 | 0 | 0 | 0 | 0 | 0 | 0 | 0 | 0 | 0 | 0 | 0 | 0 | 0 | 0
Cc1c(NC(=O)c2cc3c(s2)CCCC3)cccc1-c1cn(C)c(=O)c(Nc2ccc([C@@H]3C(=O)N(C)CCN3C)cc2)n1 (10 µM) | 0 | 0 | 0 | 0 | 0 | 0 | 0 | 0 | 0 | 0 | 0 | 0 | 0 | 0 | 0 | 0 | 0 | 0 | 0 | 0
Cc1nc(N)sc1-c1ccnc(Nc2ccc(N3CCOCC3)cc2)n1 (10 µM) | 0 | 1 | 0 | 1 | 0 | 0 | 0 | 0 | 1 | 1 | 0 | 0 | 0 | 0 | 0 | 0 | 0 | 0 | 4 | 0
CCN(CC)CCCCNc1ncc2cc(-c3c(Cl)cccc3Cl)c(NC(=O)NC(C)(C)C)nc2n1 (2.5 µM) | 0 | 2 | 0 | 2 | 0 | 1 | 1 | 0 | 0 | 0 | 0 | 0 | 0 | 0 | 0 | 1 | 0 | 0 | 4 | 0
COc1ccc(COc2ccc(Cc3cnc(N)nc3N)cc2OC)cc1 (10 µM) | 0 | 0 | 0 | 0 | 0 | 0 | 0 | 0 | 0 | 0 | 0 | 0 | 0 | 0 | 0 | 0 | 0 | 0 | 0 | 0

A second format for 2 compounds above.
SMILES	number of time points [1]	number of time points [2]	number of time points [3]	number of time points [4]	number of time points [5]	number of time points [6]	number of time points [7]	number of time points [8]	number of time points [9]	number of time points [10]	number of time points [11]	number of time points [12]	number of time points [13]	number of time points [14]	number of time points [15]	number of time points [16]	number of time points [17]	number of time points [18]	number of time points [19]	number of time points [20]
Cc1c(NC(=O)c2cc3c(s2)CCCC3)cccc1-c1cn(C)c(=O)c(Nc2ccc([C@@H]3C(=O)N(C)CCN3C)cc2)n1 (10 µM)	0	0	0	0	0	0	0	0	0	0	0	0	0	0	0	0	0	0	0	0
CCN(CC)CCCCNc1ncc2cc(-c3c(Cl)cccc3Cl)c(NC(=O)NC(C)(C)C)nc2n1 (2.5 µM)	0	2	0	2	0	1	1	0	0	0	0	0	0	0	0	1	0	0	4	0
